# Source: PubChem BioAssay AID1347075 (National Center for Advancing Translational Sciences (NCATS), 2019)
# The whole screen tested about 400,000 compounds, of which about 5,500 (1.4%) were called active. This list was built around the results that the source calls inconclusive (neither active nor inactive); the mix of calls is not that of the screen. The call rests on the fitted dose curve; in most records, active means well fitted cell-killing curve with a large enough effect; inconclusive means small, poorly fitted or top-dose-only effect, or effect the other way; inactive means flat fitted curve, though single readings scatter. Potencies beside an inconclusive call are fits to weak or partial responses and may not hold up.
# Test: qHTS assay for MDR1-selective chemotherapeutics: Primary screen using the parental adenocarcinoma cell KB-3-1; further: nearly all actives have a fitted effect of over 60% in size
# Details: KB-3-1 viability, CellTiter-Glo ATP luminescence, 72 h; series mostly up to 46.1 µM
# How it was run: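 72 h, 37 °C compound treatment of KB-3-1 parental cells; CellTiter-Glo added, 10 min, luminescence read. Data corrected against DMSO-only plates and normalized before curve fitting.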
# Potency means the concentration at half of the fitted maximal effect.
row,Compound,Potency
1,Cc1cc(CNC(=O)COC(=O)c2ccc(Cl)c(N)c2)cc(C)c1O,inactive
2,Cc1cn2c(=O)cc(COC(=O)c3ccccc3F)nc2s1,inactive
3,O=C(c1cnn(-c2ccc(Cl)cc2)c1)c1ccccc1O,"inconclusive: 32.6 µM [rising, single point]"
4,Cc1oc(-c2ccc(Cl)cc2)nc1CN1CCCC(C(=O)NCCCN2CCOCC2)C1 (centres undefined),"inconclusive: 32.6 µM [cytotoxic, single point]"
5,CC(C)Cn1c(C(C)C)nc([N+](=O)[O-])c1Sc1ccc(Cl)cn1,"inconclusive: 29.1 µM [cytotoxic, single point]"
6,O=C(CN1C(=O)C2(SCC(=O)N2c2ccccc2)c2ccccc21)NCCc1ccccc1 (centres undefined),inactive
7,CC(=O)c1ccc(N2CCN(C(=O)c3ccc4c(=O)n(-c5ccccc5)c(=O)[nH]c4c3)CC2)cc1,inactive
8,COc1ccccc1Nc1ncccc1C(=O)NCc1ccccc1,"inconclusive: 29.1 µM [cytotoxic, single point]"
9,COc1ccc(CN(C(=O)c2ccco2)c2ccc(C)c(C)c2)cc1,active: 16.4 µM
10,COc1ccccc1N1CCN(c2nc3ccccc3nc2C(C#N)C(=O)OC(C)C)CC1 (centres undefined),"inconclusive: 29.1 µM [cytotoxic, single point]"
11,O=C(NCC(c1cccnc1)N1CCc2ccccc2C1)C(=O)Nc1cccc(Cl)c1 (centres undefined),inactive
12,O=C(c1ccccc1)c1c[nH]c(C(=O)NNc2ccccc2)c1,"inconclusive: 18.4 µM [cytotoxic, single point]"
13,Cc1cc(=O)[nH]c(NN=C2CCCCC2C)n1 (centres undefined),"inconclusive: 20.6 µM [rising, single point]"
14,O=c1[nH]c(Sc2ccc([N+](=O)[O-])cc2[N+](=O)[O-])nc2ccccc12,inactive
15,CC(=O)Nc1ccc(-c2ccnc3c2CC(C(=O)Nc2ccccc2)O3)cc1 (centres undefined),active: 20.6 µM
16,Cc1nc2ccccn2c1C(=O)/C=C/c1cccc([N+](=O)[O-])c1,active: 2.59 µM
17,COCCNC(=O)c1cn(C)c2ccc(S(=O)(=O)N(C)C3CCCCC3)cc2c1=O,"inconclusive: 29.1 µM [cytotoxic, single point]"
18,CCc1nc(N2CCN(C(=O)c3ccco3)CC2)c(C#N)c2c1COC(C)(C)C2,inactive
19,Cc1cccc(Nc2nc(NCc3ccco3)c3ccccc3n2)c1,"inconclusive: 14.6 µM [cytotoxic, partial curve, poor fit]"
20,CC(=O)N1CCc2c(sc3c2c(=O)n(-c2ccccc2)c(=O)n3Cc2cccc(C(F)(F)F)c2)C1,"inconclusive: 23.1 µM [cytotoxic, single point]"
21,O=C(/C=C/c1ccc(F)cc1)NC(=S)NNC(=O)c1cnccn1,active: 5.8 µM
22,O=C(O)Cc1ccc2sc(-c3ccccc3)nc2c1,"inconclusive: 16.4 µM [cytotoxic, single point]"

# Looked up above:
# For Potency, COCCNC(=O)c1cn(C)c2ccc(S(=O)(=O)N(C)C3CCCCC3)cc2c1=O has inconclusive: 29.1 µM [cytotoxic, single point]
# For Potency, CC(=O)Nc1ccc(-c2ccnc3c2CC(C(=O)Nc2ccccc2)O3)cc1 (centres undefined) has active: 20.6 µM

# Continued:

row,Compound,Potency
1,COc1cc(C2=Nc3ccc(Br)cc3C(c3ccccc3)N2CC(=O)NN)cc(OC)c1OC (centres undefined),"inconclusive: 29.1 µM [rising, single point]"
2,CCOP(=O)(NC12CC3CC(CC(C3)C1)C2)NC12CC3CC(CC(C3)C1)C2,"inconclusive: 0.184 µM [cytotoxic, full curve]"
3,CN(C(=O)c1ccc(S(=O)(=O)c2cccc(Cl)c2)c([N+](=O)[O-])c1)C1CCCCC1,"inconclusive: 29.1 µM [cytotoxic, single point]"
4,CCOC(=O)c1cnc2c(ccc3ccccc32)c1Nc1ccc(OC)cc1OC,"inconclusive: 20.6 µM [cytotoxic, single point]"
5,Cc1sc2ncnc(Sc3nnnn3-c3ccccc3)c2c1C,"inconclusive: 32.6 µM [cytotoxic, single point]"
6,Cc1nc(-c2ccccc2)sc1-c1nc(-c2ccncc2)ncc1S(=O)(=O)c1ccccc1,"inconclusive: 29.1 µM [cytotoxic, single point]"
7,O=C(C1CCN(S(=O)(=O)c2c(Cl)cccc2Cl)CC1)N1CCCCCCC1,inactive
8,CC(=O)c1ccc(OCCCC(=O)NCCc2ccc(C(F)(F)F)cc2)cc1,inactive
9,Cc1cc(OCC(=O)Nc2cc(S(=O)(=O)N3CCOCC3)ccc2N2CCCC2)ccc1C(C)C,inactive
10,CN(C)S(=O)(=O)c1cccc(NC(=S)Nc2cccc3cnccc23)c1,"inconclusive: 32.6 µM [cytotoxic, single point]"
11,Oc1ccc(CN2CCN(c3ccccc3)CC2)c2cccnc12,"inconclusive: 23.1 µM [cytotoxic, single point]"
12,NC(=O)c1ccc(Cn2c(C(=O)c3ccc(Cl)cc3)c3ccccc3[n+]2[O-])cc1,inactive
13,CCN(CC)c1ccc(CN(C(=O)c2cccs2)C2CCS(=O)(=O)C2)cc1 (centres undefined),"inconclusive: 25.9 µM [cytotoxic, partial curve, poor fit]"
14,COc1cccc(OC)c1OCCCc1c(C)n[nH]c1C,inactive
15,CCCCCNC(=O)C(c1ccc(OC)cc1)n1c(=O)c(-c2ccco2)nc2ccccc21 (centres undefined),"inconclusive: 20.6 µM [cytotoxic, single point]"
16,c1ccc(C2[C@H]3CN(Cc4cccnc4)[C@H](c4ccccc4)C34CC2(c2ccccc2)C4)cc1 (some centres undefined),"inconclusive: 29.1 µM [cytotoxic, single point]"
17,O=c1ccc2ccccc2c2ccccc12,active: 8.2 µM
18,COc1cc(OC)c(NC(=O)CN(C)S(=O)(=O)c2ccc3c(c2)CCCC(=O)N3)cc1Cl,"inconclusive: 20.6 µM [cytotoxic, partial curve, poor fit]"
19,O=S(=O)(Nc1ccc(O)c2ccccc12)c1cccs1,"inconclusive: 29.1 µM [cytotoxic, single point]"
20,Cc1nc(Cl)c(C(=O)NC(=O)Nc2cccc(C(F)(F)F)c2)c(C)c1[N+](=O)[O-],active: 10 µM
21,CCOC(=O)c1nnn(-c2nc(N(C)C)nc(N(C)C)n2)c1C,"inconclusive: 9.2 µM [rising, partial curve]"
22,COc1ccc(-c2ccc(SCc3cccnc3)nn2)cc1OC,"inconclusive: 29.1 µM [cytotoxic, single point]"
